Measurements reported in PubChem BioAssay AID1159578 (Peter MacCallum Cancer Centre, 2015)
Purpose: 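Genome-wide hunt for genes controlling movement of lymphatic endothelial cells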 (primary screen). System: human lymphatic endothelial cells. Knock-down reagent: siRNA pool against human genes, 40 nM. Timing: 48 h after transfection. Detection: 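High-content imaging of dye-stained cells in a scratch assay measures filled wound area and nuclei per well; duplicate means given as ratio to mock and robust z-score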. Direction: migration robust z-score: higher = faster migration into the scratch; nuclei per well: higher = more cells in the well. Active means: 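Migration changed when robust z exceeds 2 or falls below -2 and mean nuclei number is at least 3300; otherwise not called changed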. Calls: active = migration changed; inactive = no migration change, or too few cells.
In all, the deposit lists about 18,000 reagents; this is an unselected part. In the full data, about 1,030 (5.7%) were called active. 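Inactive calls also include pools with fewer than 3300 nuclei, whose migration was not assessed.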 Raw values vary from plate to plate and are shown uncorrected. Further read-outs or replicates are left out here.

The opening 3 entries as a preview:
Target gene,migration robust z-score,migration class with cell-count check,"nuclei per well, duplicate mean",Call
RPS4Y1 (ribosomal protein S4 Y-linked 1),0.47,migration z between -2 and 2; enough cells,7081,inactive
RIMBP2 (RIMS binding protein 2),0.72,migration z between -2 and 2; enough cells,5806,inactive
PAGE1 (PAGE family member 1),0.26,migration z between -2 and 2; enough cells,6462,inactive

Results, repeating the preview:
Target gene,migration robust z-score,migration class with cell-count check,"nuclei per well, duplicate mean",Call
RPS4Y1 (ribosomal protein S4 Y-linked 1),0.47,migration z between -2 and 2; enough cells,7081,inactive
RIMBP2 (RIMS binding protein 2),0.72,migration z between -2 and 2; enough cells,5806,inactive
PAGE1 (PAGE family member 1),0.26,migration z between -2 and 2; enough cells,6462,inactive
PRB3 (proline rich protein BstNI subfamily 3),0.56,migration z between -2 and 2; enough cells,5239,inactive
MTRF1L (mitochondrial translation release factor 1 like),-0.13,migration z between -2 and 2; enough cells,4958,inactive
"LIPC (lipase C, hepatic type)",-0.02,migration z between -2 and 2; enough cells,5028,inactive
SLC8A2,-0.36,migration z between -2 and 2; enough cells,5948,inactive
EMC1 (ER membrane protein complex subunit 1),0.57,migration z between -2 and 2; enough cells,5538,inactive
TPPP3 (tubulin polymerization promoting protein family member 3),-1.32,migration z between -2 and 2; enough cells,5868,inactive
SLC22A16,0.72,migration z between -2 and 2; enough cells,5746,inactive
KRT7 (keratin 7),-0.15,migration z between -2 and 2; enough cells,6102,inactive
PLA2G2F (phospholipase A2 group IIF),-0.54,migration z between -2 and 2; enough cells,5646,inactive
FAM204A (family with sequence similarity 204 member A),-1.66,migration z between -2 and 2; enough cells,5477,inactive
LONRF1 (LON peptidase N-terminal domain and ring finger 1),1.77,migration z between -2 and 2; enough cells,5046,inactive
ACAN (aggrecan),0.34,migration z between -2 and 2; enough cells,7359,inactive
RPL18A (ribosomal protein L18a),-0.73,migration z between -2 and 2; enough cells,5652,inactive
ZNF260 (zinc finger protein 260),-0.4,migration z between -2 and 2; enough cells,4966,inactive
PTMS (parathymosin),0.29,migration z between -2 and 2; enough cells,5954,inactive
TIGD3 (tigger transposable element derived 3),-0.67,migration z between -2 and 2; enough cells,5402,inactive
ANKRD53 (ankyrin repeat domain 53),0.32,migration z between -2 and 2; enough cells,5078,inactive
NHERF4 (NHERF family PDZ scaffold protein 4),-2.01,migration z below -2; enough cells,6246,active
CTTNBP2 (cortactin binding protein 2),-1.15,migration z between -2 and 2; enough cells,4306,inactive
SLC40A1,-0.18,migration z between -2 and 2; enough cells,5947,inactive
"RAP1A (RAP1A, member of RAS oncogene family)",0.39,migration z between -2 and 2; enough cells,4529,inactive
UBE2NL (ubiquitin conjugating enzyme E2 N like (gene/pseudogene)),-1.35,migration z between -2 and 2; enough cells,5220,inactive
CLASP1 (cytoplasmic linker associated protein 1),1.75,migration z between -2 and 2; enough cells,5744,inactive
HSD17B12 (hydroxysteroid 17-beta dehydrogenase 12),0.12,migration z between -2 and 2; enough cells,6596,inactive
FAM20B (FAM20B glycosaminoglycan xylosylkinase),0.63,migration z between -2 and 2; enough cells,5570,inactive
CASP2 (caspase 2),-0.44,migration z between -2 and 2; enough cells,5768,inactive
TAS1R1 (taste 1 receptor member 1),-0.68,migration z between -2 and 2; enough cells,5614,inactive
WFDC3 (WAP four-disulfide core domain 3),-0.54,migration z between -2 and 2; enough cells,5816,inactive
"PKMYT1 (protein kinase, membrane associated tyrosine/threonine 1)",-0.29,migration z between -2 and 2; enough cells,3648,inactive
DUSP10 (dual specificity phosphatase 10),-0.47,migration z between -2 and 2; enough cells,5080,inactive
SNTB2 (syntrophin beta 2),-0.1,migration z between -2 and 2; enough cells,5976,inactive
OR4F3 (olfactory receptor family 4 subfamily F member 3),0.12,migration z between -2 and 2; enough cells,6002,inactive
ZFP2 (ZFP2 zinc finger protein),0.04,migration z between -2 and 2; enough cells,6906,inactive
CRB2 (crumbs cell polarity complex component 2),0.39,migration z between -2 and 2; enough cells,5590,inactive
SYNDIG1 (synapse differentiation inducing 1),-0.83,migration z between -2 and 2; enough cells,5618,inactive
FAM227B (family with sequence similarity 227 member B),-0.11,migration z between -2 and 2; enough cells,7306,inactive
KRTAP10-11 (keratin associated protein 10-11),-1.83,migration z between -2 and 2; enough cells,5418,inactive
FIBP (FGF1 intracellular binding protein),0.88,migration z between -2 and 2; enough cells,6672,inactive
RPL10L (ribosomal protein L10 like),-3.68,under 3300 nuclei; migration not judged,2190,inactive
LTBP3 (latent transforming growth factor beta binding protein 3),-1.74,migration z between -2 and 2; enough cells,4652,inactive
TBC1D32 (TBC1 domain family member 32),-0.36,migration z between -2 and 2; enough cells,6433,inactive
SRSF12 (serine and arginine rich splicing factor 12),0.43,migration z between -2 and 2; enough cells,5979,inactive
LTBP1 (latent transforming growth factor beta binding protein 1),-0.54,migration z between -2 and 2; enough cells,6552,inactive
FABP3 (fatty acid binding protein 3),2.46,migration z above 2; enough cells,6124,active
ALDH4A1 (aldehyde dehydrogenase 4 family member A1),0.32,migration z between -2 and 2; enough cells,6942,inactive
MAGEA6 (MAGE family member A6),-0.34,migration z between -2 and 2; enough cells,6792,inactive
NOL4L (nucleolar protein 4 like),-0.01,migration z between -2 and 2; enough cells,6134,inactive
TMEM97 (transmembrane protein 97),-0.22,migration z between -2 and 2; enough cells,5664,inactive
FGF4 (fibroblast growth factor 4),2.62,migration z above 2; enough cells,5678,active
POU6F1 (POU class 6 homeobox 1),-0.83,migration z between -2 and 2; enough cells,4667,inactive
AFAP1L2 (actin filament associated protein 1 like 2),-0.86,migration z between -2 and 2; enough cells,7159,inactive
ZNF333 (zinc finger protein 333),1.18,migration z between -2 and 2; enough cells,6614,inactive
PAN2 (poly(A) specific ribonuclease subunit PAN2),-0.42,migration z between -2 and 2; enough cells,4342,inactive
TAS2R45 (taste 2 receptor member 45),1.08,migration z between -2 and 2; enough cells,3311,inactive
MMP21 (matrix metallopeptidase 21),-1.35,migration z between -2 and 2; enough cells,5558,inactive
UPK2 (uroplakin 2),-0.57,migration z between -2 and 2; enough cells,5531,inactive
SRPK3 (SRSF protein kinase 3),-0.83,migration z between -2 and 2; enough cells,4622,inactive
MSANTD2 (Myb/SANT DNA binding domain containing 2),1.04,migration z between -2 and 2; enough cells,5758,inactive
"SSPOP (SCO-spondin, pseudogene)",-0.04,migration z between -2 and 2; enough cells,5529,inactive
ANKRD34B (ankyrin repeat domain 34B),-2.26,migration z below -2; enough cells,3588,active
MKX (mohawk homeobox),-0.26,migration z between -2 and 2; enough cells,5782,inactive
KTI12 (KTI12 chromatin associated homolog),-0.86,migration z between -2 and 2; enough cells,5367,inactive
EPHB6 (EPH receptor B6),-0.39,migration z between -2 and 2; enough cells,3880,inactive
SPANXN3 (SPANX family member N3),-2.25,migration z below -2; enough cells,5974,active
SLC49A4,2.03,migration z above 2; enough cells,7014,active
TDG (thymine DNA glycosylase),0.02,migration z between -2 and 2; enough cells,4470,inactive
RPH3A (rabphilin 3A),0.97,migration z between -2 and 2; enough cells,6706,inactive
ENDOG (endonuclease G),-0.8,migration z between -2 and 2; enough cells,5598,inactive
PRDX3 (peroxiredoxin 3),-0.36,migration z between -2 and 2; enough cells,6243,inactive
FMNL3 (formin like 3),-0.09,migration z between -2 and 2; enough cells,5068,inactive
